Reference: article PMC11432723
No constants are given. Whether binding was seen depends on the method and setting. In cells and extracts the contact can be indirect. Some results given as binding are weak or reduced against the parent protein; the word gives no strength.

Chains of the proteins cited; added tags and fusions are not shown.
UniProt Q9UNE7: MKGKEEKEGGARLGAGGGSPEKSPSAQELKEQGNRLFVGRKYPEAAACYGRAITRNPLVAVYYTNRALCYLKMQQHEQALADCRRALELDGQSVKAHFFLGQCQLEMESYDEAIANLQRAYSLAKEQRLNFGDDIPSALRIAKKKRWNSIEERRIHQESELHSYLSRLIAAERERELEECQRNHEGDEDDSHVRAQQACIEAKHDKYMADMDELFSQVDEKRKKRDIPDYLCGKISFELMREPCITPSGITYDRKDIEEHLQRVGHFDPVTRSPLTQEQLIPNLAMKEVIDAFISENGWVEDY
UniProt Q86TM6: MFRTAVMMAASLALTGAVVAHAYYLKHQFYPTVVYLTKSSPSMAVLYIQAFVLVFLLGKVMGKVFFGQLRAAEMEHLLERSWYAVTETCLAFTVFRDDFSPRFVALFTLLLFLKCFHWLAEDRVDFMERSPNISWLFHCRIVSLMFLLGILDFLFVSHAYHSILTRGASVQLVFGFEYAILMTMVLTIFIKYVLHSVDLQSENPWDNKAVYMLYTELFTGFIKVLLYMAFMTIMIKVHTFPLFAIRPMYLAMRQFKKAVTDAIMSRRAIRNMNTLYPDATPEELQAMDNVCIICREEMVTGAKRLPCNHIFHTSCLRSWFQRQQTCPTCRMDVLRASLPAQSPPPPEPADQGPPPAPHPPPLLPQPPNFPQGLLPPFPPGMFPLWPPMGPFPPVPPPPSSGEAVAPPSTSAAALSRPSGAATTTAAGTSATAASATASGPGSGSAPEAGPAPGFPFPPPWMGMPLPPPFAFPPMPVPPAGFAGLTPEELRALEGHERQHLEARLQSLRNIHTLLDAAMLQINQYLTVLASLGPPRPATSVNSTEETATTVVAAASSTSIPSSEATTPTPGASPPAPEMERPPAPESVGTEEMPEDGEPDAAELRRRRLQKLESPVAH

Target: T1, myocilin (human (endogenous in primary TMC strain)) (UniProt Q99972)
T1 sequence: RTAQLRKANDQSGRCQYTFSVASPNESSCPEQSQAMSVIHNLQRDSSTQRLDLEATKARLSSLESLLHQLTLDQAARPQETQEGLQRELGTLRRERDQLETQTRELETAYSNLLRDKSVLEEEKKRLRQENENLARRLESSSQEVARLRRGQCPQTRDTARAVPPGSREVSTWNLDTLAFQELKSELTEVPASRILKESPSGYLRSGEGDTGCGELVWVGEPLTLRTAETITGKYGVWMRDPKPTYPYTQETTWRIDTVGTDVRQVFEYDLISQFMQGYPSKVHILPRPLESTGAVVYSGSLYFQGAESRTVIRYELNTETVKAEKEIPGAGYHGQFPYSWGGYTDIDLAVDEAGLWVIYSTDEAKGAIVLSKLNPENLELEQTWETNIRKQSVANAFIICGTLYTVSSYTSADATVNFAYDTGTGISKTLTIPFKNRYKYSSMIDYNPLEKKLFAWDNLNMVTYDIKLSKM
Experiment: co-IP; anti-myocilin antibody (clone 7.1) on M-270 epoxy Dynabeads, soluble fraction of lysates of untreated TMCs; lysis buffer with 1 mM DTT, 50 mM NaCl and inhibitors; slow mixing at 4 °C; species-matching control IgGs in parallel; denaturing and reducing Western blot

Row | Substance | binding
1 | STUB1/CHIP (from UniProt Q9UNE7 1-303) (enzyme) | binds
2 | synoviolin (SYVN1) (from UniProt Q86TM6 1-617) (enzyme) | no binding
